The assay has as its target T1, Mre11-Myc (S. cerevisiae) (UniProt P32829).
T1 sequence: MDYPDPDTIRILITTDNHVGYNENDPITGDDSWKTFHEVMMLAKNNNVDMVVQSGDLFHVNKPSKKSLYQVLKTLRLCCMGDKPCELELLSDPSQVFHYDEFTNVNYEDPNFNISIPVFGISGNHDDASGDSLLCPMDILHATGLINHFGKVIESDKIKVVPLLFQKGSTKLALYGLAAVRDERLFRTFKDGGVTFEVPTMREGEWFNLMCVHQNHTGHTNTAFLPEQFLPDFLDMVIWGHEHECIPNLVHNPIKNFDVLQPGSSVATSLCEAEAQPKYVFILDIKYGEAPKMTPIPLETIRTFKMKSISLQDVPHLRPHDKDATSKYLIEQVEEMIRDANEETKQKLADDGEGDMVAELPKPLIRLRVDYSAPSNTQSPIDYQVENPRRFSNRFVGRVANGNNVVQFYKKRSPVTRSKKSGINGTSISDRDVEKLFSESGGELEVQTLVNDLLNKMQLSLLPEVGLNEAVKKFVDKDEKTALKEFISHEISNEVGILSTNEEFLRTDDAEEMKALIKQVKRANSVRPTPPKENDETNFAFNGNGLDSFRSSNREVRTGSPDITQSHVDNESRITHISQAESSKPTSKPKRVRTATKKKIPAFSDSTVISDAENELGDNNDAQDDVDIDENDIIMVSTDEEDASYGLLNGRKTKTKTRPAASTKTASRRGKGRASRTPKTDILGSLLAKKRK
The assay can be described thus: co-IP; Mre11-Myc immunoprecipitated with anti-Myc antibodies from yeast extracts; western blot with anti-HA or anti-Myc antibodies.

Changes are numbered by the printed parent chain. Names and notes keep the numbering of the source. No constants are given. Whether binding was seen depends on the method and setting. Binding seen in cells or lysates may run through a third protein. Some entries that bind do so weakly or less than the wild type. Where a sequence is shown, tags or fusion partners need not be part of it.

Experimental findings from PMC4762649, “Tel1 and Rif2 Regulate MRX Functions in End-Tethering and Repair of DNA Double-Strand Breaks” (PLoS Biology, 2016) are described below.

B1: Rad50-HA (protein, UniProt P12753 1-1312)
chain: MSAIYKLSIQGIRSFDSNDRETIEFGKPLTLIVGMNGSGKTTIIECLKYATTGDLPPNSKGGVFIHDPKITGEKDIRAQVKLAFTSANGLNMIVTRNIQLLMKKTTTTFKTLEGQLVAINNSGDRSTLSTRSLELDAQVPLYLGVPKAILEYVIFCHQEDSLWPLSEPSNLKKKFDEIFQAMKFTKALDNLKSIKKDMSVDIKLLKQSVEHLKLDKDRSKAMKLNIHQLQTKIDQYNEEVSEIESQLNEITEKSDKLFKSNQDFQKILSKVENLKNTKLSISDQVKRLSNSIDILDLSKPDLQNLLANFSKVLMDKNNQLRDLETDISSLKDRQSSLQSLSNSLIRRQGELEAGKETYEKNRNHLSSLKEAFQHKFQGLSNIENSDMAQVNHEMSQFKAFISQDLTDTIDQFAKDIQLKETNLSDLIKSITVDSQNLEYNKKDRSKLIHDSEELAEKLKSFKSLSTQDSLNHELENLKTYKEKLQSWESENIIPKLNQKIEEKNNEMIILENQIEKFQDRIMKTNQQADLYAKLGLIKKSINTKLDELQKITEKLQNDSRIRQVFPLTQEFQRADLEMDFQKLFINMQKNIAINNKKMHELDRRYTNALYNLNTIEKDLQDNQKSKEKVIQLLSENLPEDCTIDEYNDVLEETELSYKTALENLKMHQTTLEFNRKALEIAERDSCCYLCSRKFENESFKSKLLQELKTKTDANFEKTLKDTVQNEKEYLHSLRLLEKHIITLNSINEKIDNSQKCLEKAKEETKTSKSKLDELEVDSTKLKDEKELAESEIRPLIEKFTYLEKELKDLENSSKTISEELSIYNTSEDGIQTVDELRDQQRKMNDSLRELRKTISDLQMEKDEKVRENSRMINLIKEKELTVSEIESSLTQKQNIDDSIRSKRENINDIDSRVKELEARIISLKNKKDEAQSVLDKVKNERDIQVRNKQKTVADINRLIDRFQTIYNEVVDFEAKGFDELQTTIKELELNKAQMLELKEQLDLKSNEVNEEKRKLADSNNEEKNLKQNLELIELKSQLQHIESEISRLDVQNAEAERDKYQEESLRLRTRFEKLSSENAGKLGEMKQLQNQIDSLTHQLRTDYKDIEKNYHKEWVELQTRSFVTDDIDVYSKALDSAIMKYHGLKMQDINRIIDELWKRTYSGTDIDTIKIRSDEVSSTVKGKSYNYRVVMYKQDVELDMRGRCSAGQKVLASIIIRLALSETFGANCGVIALDEPTTNLDEENIESLAKSLHNIINMRRHQKNFQLIVITHDEKFLGHMNAAAFTDHFFKVKRDDRQKSQIEWVDINRVTY
Take B1: the binding result is listed as “binds”.

B2: Rad50-V1269M-HA (protein, UniProt P12753 1-1312)
chain: B1 chain with V1269M
In the case of B2, the binding result is recorded as “binds”.
